Data source: PubChem BioAssay AID1259307 (Sanger Institute, 2017)

Assay: 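Identify kinases needed for SW620 growth or enhancing BYL719, cetuximab or trametinib effects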 (primary screen)
Cell system: SW620 colorectal cancer cells
Knock-down reagent: siRNA pool against human genes
Challenge: anchor drugs BYL719 at 1 µM, cetuximab at 5 µg/ml or trametinib at 10 nM, each beside a DMSO vehicle arm
Read-out: 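Per-well viability versus non-targeting control pool, replicate-averaged, robust z-score from controls; synergy scores for BYL719 1 µM, cetuximab 5 µg/ml, trametinib 10 nM against DMSO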
Scale: viability robust z-score, no drug: higher = more viable cells
Hit rule: 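a knock-down counts as lethal alone if its drug-free robust viability z-score is lower than -3, regardless of synergy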
Calls: active = essential (lethal alone); inactive = no change alone
In all, the deposit lists 794 reagents; below is a part drawn at random. In the full data, 15 (1.9%) are marked active. 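Calls reflect lethality without any drug; synergy scores did not enter the calls.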 Further read-outs or replicates are left out here. Not given: the amount of reagent, the time to read-out.

| target gene | viability robust z-score, no drug | Outcome |
| --- | --- | --- |
| NEK5 | -0.965 | inactive |
| SRPK2 | 0.736 | inactive |
| CAMK2B | 0.0304 | inactive |
| FLT1 | -0.314 | inactive |
| MAP3K4 | -0.23 | inactive |
| MAGI2 | -0.758 | inactive |
| KCNH8 | 0.736 | inactive |
| PIK3R1 | 0.548 | inactive |

An excerpt of the results above, as a working copy:
| target gene | viability robust z-score, no drug | Outcome |
| --- | --- | --- |
| CAMK2B | 0.0304 | inactive |
| FLT1 | -0.314 | inactive |

The results go on.
| target gene | viability robust z-score, no drug | Outcome |
| --- | --- | --- |
| PHKB | 0.0375 | inactive |
| GUCY2D | -4.51 | active |
| RIPK2 | -0.324 | inactive |
| LMTK3 | 0.174 | inactive |
| CHKA | -0.606 | inactive |
| CDKN2D | -0.783 | inactive |
| APC | -0.281 | inactive |
| GSK3A | 0.736 | inactive |
| PDGFRA | 0.438 | inactive |
| SF3B1 | -5.91 | active |
| MLKL | 0.0975 | inactive |
| AKAP9 | -0.286 | inactive |
